Assay results reported in paper PMC9950529.
Results are given in words; binding and its absence hold for the method and conditions named. For some assays here: Binding seen in cells or lysates may run through a third protein.

Key:
[1] = target: CK1δ (mouse (endogenous in mouse liver)), Q9DC28; test: co-sedimentation; as the glycerol gradient, extract of ZT6, when PER is undetected; details: remark: other sources report otherwise
[2] = target: CRY1 (mouse (endogenous in mouse liver)) (UniProt P97784); test: SEC; as the gel filtration, extract of ZT6, in the apparent absence of detectable PER
[3] = target: CRY1 (mouse (endogenous in mouse liver)) (UniProt P97784); test: co-sedimentation; as the glycerol gradient, extract of ZT6, when PER is undetected
[4] = target: CK1δ (mouse (endogenous in mouse liver)) (UniProt Q9DC28); test: co-sedimentation; 10-30% glycerol gradient (25 mM Tris pH 8.0, 100 mM NaCl, 2 mM DTT), SW60 54,000 rpm, 6 h, 4 °C; mouse liver nuclear extracts of ZT0, ZT2, ZT6, ZT12, ZT16, ZT19 mixed with reference proteins; fractions analysed by Western blot
[5] = target: CK1δ (mouse (endogenous in mouse liver)) (UniProt Q9DC28); test: SEC; Superose 6 Increase 10/300 GL, room temperature, 10 mM Hepes pH 7.9, 200 mM KCl, 1.5 mM MgCl2, 0.1 mM EGTA, 0.1 mM EDTA, 20% glycerol; mouse liver nuclear extracts of ZT0, ZT2, ZT6, ZT12, ZT16, ZT19 after ultracentrifugation; fractions analysed by Western blot

B1: CK1δ, Q9DC28 1-415 (enzyme)
chain: MELRVGNRYRLGRKIGSGSFGDIYLGTDIAAGEEVAIKLECVKTKHPQLHIESKIYKMMQGGVGIPTIRWCGAEGDYNVMVMELLGPSLEDLFNFCSRKFSLKTVLLLADQMISRIEYIHSKNFIHRDVKPDNFLMGLGKKGNLVYIIDFGLAKKYRDARTHQHIPYRENKNLTGTARYASINTHLGIEQSRRDDLESLGYVLMYFNLGSLPWQGLKAATKRQKYERISEKKMSTPIEVLCKGYPSEFATYLNFCRSLRFDDKPDYSYLRQLFRNLFHRQGFSYDYVFDWNMLKFGASRAADDAERERRDREERLRHSRNPATRGLPSTASGRLRGTQEVAPPTPLTPTSHTANTSPRPVSGMERERKVSMRLHRGAPVNVSSSDLTGRQDTSRMSTSQIPGRVASSGLQSVVHR
With B1 the binding [1] was “no binding”.

B2: CRY1 (protein, UniProt P97784 1-606)
chain: MGVNAVHWFRKGLRLHDNPALKECIQGADTIRCVYILDPWFAGSSNVGINRWRFLLQCLEDLDANLRKLNSRLFVIRGQPADVFPRLFKEWNITKLSIEYDSEPFGKERDAAIKKLATEAGVEVIVRISHTLYDLDKIIELNGGQPPLTYKRFQTLVSKMEPLEMPADTITSDVIGKCMTPLSDDHDEKYGVPSLEELGFDTDGLSSAVWPGGETEALTRLERHLERKAWVANFERPRMNANSLLASPTGLSPYLRFGCLSCRLFYFKLTDLYKKVKKNSSPPLSLYGQLLWREFFYTAATNNPRFDKMEGNPICVQIPWDKNPEALAKWAEGRTGFPWIDAIMTQLRQEGWIHHLARHAVACFLTRGDLWISWEEGMKVFEELLLDADWSINAGSWMWLSCSSFFQQFFHCYCPVGFGRRTDPNGDYIRRYLPVLRGFPAKYIYDPWNAPEGIQKVAKCLIGVNYPKPMVNHAEASRLNIERMKQIYQQLSRYRGLGLLASVPSNSNGNGGLMGYAPGENVPSCSSSGNGGLMGYAPGENVPSCSGGNCSQGSGILHYAHGDSQQTHSLKQGRSSAGTGLSSGKRPSQEEDAQSVGPKVQRQSSN
With B2 the binding [2] was “no binding” and the binding [3] was “no binding”.

B3: CLOCK (protein, UniProt O08785 1-855)
chain: MVFTVSCSKMSSIVDRDDSSIFDGLVEEDDKDKAKRVSRNKSEKKRRDQFNVLIKELGSMLPGNARKMDKSTVLQKSIDFLRKHKETTAQSDASEIRQDWKPTFLSNEEFTQLMLEALDGFFLAIMTDGSIIYVSESVTSLLEHLPSDLVDQSIFNFIPEGEHSEVYKILSTHLLESDSLTPEYLKSKNQLEFCCHMLRGTIDPKEPSTYEYVRFIGNFKSLTSVSTSTHNGFEGTIQRTHRPSYEDRVCFVATVRLATPQFIKEMCTVEEPNEEFTSRHSLEWKFLFLDHRAPPIIGYLPFEVLGTSGYDYYHVDDLENLAKCHEHLMQYGKGKSCYYRFLTKGQQWIWLQTHYYITYHQWNSRPEFIVCTHTVVSYAEVRAERRRELGIEESLPETAADKSQDSGSDNRINTVSLKEALERFDHSPTPSASSRSSRKSSHTAVSDPSSTPTKIPTDTSTPPRQHLPAHEKMTQRRSSFSSQSINSQSVGPSLTQPAMSQAANLPIPQGMSQFQFSAQLGAMQHLKDQLEQRTRMIEANIHRQQEELRKIQEQLQMVHGQGLQMFLQQSNPGLNFGSVQLSSGNSNIQQLTPVNMQGQVVPANQVQSGHISTGQHMIQQQTLQSTSTQQSQQSVMSGHSQQTSLPSQTPSTLTAPLYNTMVISQPAAGSMVQIPSSMPQNSTQSATVTTFTQDRQIRFSQGQQLVTKLVTAPVACGAVMVPSTMLMGQVVTAYPTFATQQQQAQTLSVTQQQQQQQQQPPQQQQQQQQSSQEQQLPSVQQPAQAQLGQPPQQFLQTSRLLHGNPSTQLILSAAFPLQQSTFPPSHHQQHQPQQQQQLPRHRTDSLTDPSKVQPQ
In the case of B3, the binding [4] is reported as “no binding” and the binding [5] is reported as “no binding”.
